US20220106547A1, “COMPOSITIONS AND METHODS OF USING PARTIAL GEL LAYERS IN A MICROFLUIDIC DEVICE” (Emulate, Inc., priority 2019, published 2022)
For at least one compound, name, drawing or mass did not settle the structure.

System: lung cells
Test: Viability/differentiation biomarker scoring of airway chip culture conditions
Type: cell-based
Details: airway S1 chip culture
From the text: In one embodiment, the present invention contemplates a method comprising scoring at least one cell biomarker and determining a viable and differentiated cell. For example, specific quantitative scores have been assigned to a set of cell biomarkers for viability and differentiation during chip cell culture maturation includes, but is not limited to, cell death (1), ciliation (2) cell attachment (3) cell movement/shape (4), cell overgrowth (5), cell invasion (6). See, FIG. 14.
As depicted, the score value increases as the viability/differentiation relevance of the cell biomarker decreases. In one embodiment, the cell death biomarker score value increases in proportion to increased cell death. In one embodiment, the ciliation biomarker score value increases in proportion to deceased ciliation. In one embodiment, the cell attachment biomarker score value increases in proportion to decreased cell attachment. In one embodiment, the cell movement/shape biomarker score value increases with decreased cell movement/shape. In one embodiment, the cell overgrowth biomarker score value increases with increased cell overgrowth. […]
Each coating can be seen to result in different score values that are independent of location in the cell culture device (e.g., Zoe). […] It is known that retinoic acid (RA) is readily absorbed by most microchip substrates. […]

CC1=C(/C=C/C(C)=C/C=C/C(C)=C/C(=O)O)C(C)(C)CCC1 [RA, retinoic acid, reference compound]
cell viability and differentiation (scoring / morphological assessment): improves the viability and differentiation of cells
